# Primary screen of a compound library

Amino acid sequences for entries named in this document (tags omitted).
UniProt E9BF75, entry or part of it: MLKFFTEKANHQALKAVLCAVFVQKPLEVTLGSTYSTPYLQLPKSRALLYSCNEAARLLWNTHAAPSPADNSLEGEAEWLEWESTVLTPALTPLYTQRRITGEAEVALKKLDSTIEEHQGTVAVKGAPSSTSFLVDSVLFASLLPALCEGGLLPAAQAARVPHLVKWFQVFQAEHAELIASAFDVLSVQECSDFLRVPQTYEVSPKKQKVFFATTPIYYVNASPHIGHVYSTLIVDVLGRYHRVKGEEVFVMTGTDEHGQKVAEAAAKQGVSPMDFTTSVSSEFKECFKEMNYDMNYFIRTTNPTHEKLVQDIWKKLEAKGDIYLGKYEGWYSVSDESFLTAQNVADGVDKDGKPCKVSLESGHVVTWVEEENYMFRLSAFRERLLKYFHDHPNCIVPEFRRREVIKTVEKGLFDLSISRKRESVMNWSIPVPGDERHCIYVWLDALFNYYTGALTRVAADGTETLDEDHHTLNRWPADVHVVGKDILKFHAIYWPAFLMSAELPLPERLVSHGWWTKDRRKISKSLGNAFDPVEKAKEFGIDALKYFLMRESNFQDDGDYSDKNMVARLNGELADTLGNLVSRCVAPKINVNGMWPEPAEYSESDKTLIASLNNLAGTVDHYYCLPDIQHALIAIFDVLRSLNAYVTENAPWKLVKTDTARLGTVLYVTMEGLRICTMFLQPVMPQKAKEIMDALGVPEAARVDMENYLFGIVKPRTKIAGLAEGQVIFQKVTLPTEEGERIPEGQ

Data taken from ChEMBL document CHEMBL3988442, “University of Dundee, Small-Polar-MMV Screening Library” (2021).

Mtb heat-shock: 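Assay on Mycobacterium tuberculosis, filed only as a heat shock assay from Cornell; the read-out is not stated. The concentration is filed as 10 mM, unlikely as a test dose, so the dose is not known. The record gives no direction; compounds that gave an IC50 in retests scored well above the rest, so higher reads as stronger inhibition. Of about 69,000 compounds tested this way, about 930 (1.4%) reached 50% or more in at least one test.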
LdMetRS: 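Primary screen of methionyl-tRNA synthetase; the read-out is not stated. Target: Methionyl-tRNA synthetase (putative), Leishmania donovani (UniProt E9BF75). The test concentration is not given. Values are per cent inhibition. About 68,000 compounds were tested under these conditions; 0.035% (about 24) showed 50% or more at least once.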
Mtb growth Cornell: 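Whole-cell assay for inhibitors of Mycobacterium tuberculosis growth, labelled Cornell in the record; the read-out is not stated. The concentration is filed as 10 mM, unlikely as a test dose, so the dose is not known. The record gives no direction; compounds strong in two other growth screens of this library score well above the rest, so higher reads as stronger inhibition. Size under these conditions: about 53,000 compounds, about 900 of them at 50% or above in at least one test.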

Results are percentages, as filed. The record does not define 0% and 100%; most values in the screen are far below 50% and negative numbers occur (in some assays of this library far below -100). This is an unselected part of the compounds tested. A dash means the value is not listed here; it may have been measured.

- O=C(O)C(F)(F)F.O=C(O)C(F)(F)F.[H][C@@]12CN(Cc3ccccn3)C[C@]1([H])C(=O)N(c1ccsc1)C2 | Mtb heat-shock: -8.069%; Mtb growth Cornell: -1.095%
- Cc1ccc(C(=O)N(C)S(C)(=O)=O)cc1Cl | Mtb heat-shock: 6.339%; LdMetRS: 7.125%; Mtb growth Cornell: 31.64%
- Cn1ccnc1CN(Cc1ccccn1)Cc1ccccc1Cl.O=C(O)CC(O)(CC(=O)O)C(=O)O | Mtb heat-shock: 102.4%; Mtb growth Cornell: 12.91%
- CCn1ccc(C(=O)N(C)Cc2cnn(-c3cccc(OC)c3)c2)n1 | Mtb heat-shock: 23.91%; LdMetRS: 14.54%; Mtb growth Cornell: 30.43%
- COc1cc(N2CCC3(CCCN3Cc3ccn(C)n3)CC2)ncn1 | LdMetRS: 13.59%
- [H][C@]12CC[C@]([H])(CN(Cc3ccncc3)C1)N(C(=O)CCOCC)C2 | Mtb heat-shock: -21.52%
- O=C1NCC(C(=O)Nc2ncc(Cc3ccc(F)cc3)s2)N1 (stereo not shown) | Mtb heat-shock: 4.84%; LdMetRS: 26.78%; Mtb growth Cornell: 23.01%
- O=C(O)C(F)(F)F.[H][C@@]12OCCN(C(=O)c3ccoc3C)[C@@]1([H])CC[C@@H]2Oc1ccccn1 | Mtb heat-shock: 6.263%
- CNC(=O)[C@@H]1C[C@H]2CN(C(=O)c3ccco3)C[C@H]2N1C | LdMetRS: 22.18%
- Cc1nnc(NC(=O)NC2CCOc3ccccc32)s1 (stereo not shown) | Mtb heat-shock: 3.193%; LdMetRS: 13.5%; Mtb growth Cornell: 45.17%
- Cc1csc(Nc2cc(C3CCCCN3C)nc(C)n2)n1 (stereo not shown) | Mtb heat-shock: -8.179%; LdMetRS: 4.53%
- COC(=O)CNC(=O)C1(N(C)Cc2ccccc2)Cc2ccccc2C1 | Mtb heat-shock: 1.767%; LdMetRS: 9.589%; Mtb growth Cornell: 8.356%
- CCc1noc(CS(=O)(=O)Cc2ccccc2C)n1 | Mtb heat-shock: 31.56%; LdMetRS: -2.174%; Mtb growth Cornell: -11.01%
- CS(=O)(=O)N1CC[C@H]2O[C@H](C(=O)NCc3cccnc3)CC[C@H]21 | LdMetRS: 8.889%
- Cc1ccnc(OC[C@]23COC[C@H]2CN(C(=O)Cc2ccsc2)C3)n1 | LdMetRS: 12.18%
- COc1ccc(CN(Cc2ccccn2)Cc2cncn2C)cc1.O=C(O)CC(O)(CC(=O)O)C(=O)O | Mtb heat-shock: 72.33%; Mtb growth Cornell: -0.8734%
- CC(C(=O)N1CCN(CCOc2ccccc2)CC1)n1cncn1 (stereo not shown) | Mtb heat-shock: -5.121%; LdMetRS: 13.32%; Mtb growth Cornell: -10.37%
- Cc1cnc(N2CCC3(CC2)CN(c2ccsc2)C(=O)CO3)nc1.O=C(O)C(F)(F)F | Mtb heat-shock: 2.91%; Mtb growth Cornell: 0.5164%
- CC(=O)NCC(=O)NCC1Cn2nnc(-c3cccc(F)c3)c2CO1 (stereo not shown) | Mtb heat-shock: 8.482%; LdMetRS: 16.3%; Mtb growth Cornell: -13.9%
- O=C(O)C(F)(F)F.[H][C@@]12CN(C(=O)c3cc(C)oc3C)C[C@]1([H])OCCN2CCN1CCCC1 | Mtb heat-shock: -8.456%; Mtb growth Cornell: -34.44%
- CCOc1ccccc1NC(=O)NCc1ccoc1 | Mtb heat-shock: 7.902%; LdMetRS: -15.04%; Mtb growth Cornell: 23.62%
- COc1ccc(C(=O)N2CCCC(n3cncn3)C2)nn1 (stereo not shown) | Mtb heat-shock: -11.77%; LdMetRS: -1.709%; Mtb growth Cornell: -29.41%
- [H][C@]12CC[C@]([H])(CC(=O)N(C)C1)N2C(=O)c1ccc(C)[nH]c1=O | Mtb heat-shock: -6.73%
- O=C(N1CCCC(n2cncn2)C1)C1(c2cccc(F)c2)CCCC1 (stereo not shown) | Mtb heat-shock: -24.07%; LdMetRS: 6.425%; Mtb growth Cornell: -7.361%
- [H][C@@]12CS(=O)(=O)C[C@]1([H])NCCN2C(=O)COc1ccc(C)nc1 | Mtb heat-shock: 11.74%

3 of the entries, repeated:

| Compound | Mtb heat-shock | LdMetRS | Mtb growth Cornell |
|---|---|---|---|
| `Cn1ccnc1CN(Cc1ccccn1)Cc1ccccc1Cl.O=C(O)CC(O)(CC(=O)O)C(=O)O` | 102.4% | - | 12.91% |
| `[H][C@@]12CS(=O)(=O)C[C@]1([H])NCCN2C(=O)COc1ccc(C)nc1` | 11.74% | - | - |
| `COC(=O)CNC(=O)C1(N(C)Cc2ccccc2)Cc2ccccc2C1` | 1.767% | 9.589% | 8.356% |